Experimental data published in publication PMC5733026.
Results are given in words; binding and its absence hold for the method and conditions named. Binding seen in cells or lysates may run through a third protein. Some binding calls cover weakened binding; strength is not graded here.

Sequences of proteins named here, by UniProt entry; tags and fusion partners are left off. A change or cut given only in a name is not applied to a line headed by its entry. A line that says so, or that is headed by a name, gives the form on record, which may keep a tag or linker. Residues count along the entry.
wild-type human 69-kDa choline acetyltransferase (ChAT) (P28329, residues 119-748): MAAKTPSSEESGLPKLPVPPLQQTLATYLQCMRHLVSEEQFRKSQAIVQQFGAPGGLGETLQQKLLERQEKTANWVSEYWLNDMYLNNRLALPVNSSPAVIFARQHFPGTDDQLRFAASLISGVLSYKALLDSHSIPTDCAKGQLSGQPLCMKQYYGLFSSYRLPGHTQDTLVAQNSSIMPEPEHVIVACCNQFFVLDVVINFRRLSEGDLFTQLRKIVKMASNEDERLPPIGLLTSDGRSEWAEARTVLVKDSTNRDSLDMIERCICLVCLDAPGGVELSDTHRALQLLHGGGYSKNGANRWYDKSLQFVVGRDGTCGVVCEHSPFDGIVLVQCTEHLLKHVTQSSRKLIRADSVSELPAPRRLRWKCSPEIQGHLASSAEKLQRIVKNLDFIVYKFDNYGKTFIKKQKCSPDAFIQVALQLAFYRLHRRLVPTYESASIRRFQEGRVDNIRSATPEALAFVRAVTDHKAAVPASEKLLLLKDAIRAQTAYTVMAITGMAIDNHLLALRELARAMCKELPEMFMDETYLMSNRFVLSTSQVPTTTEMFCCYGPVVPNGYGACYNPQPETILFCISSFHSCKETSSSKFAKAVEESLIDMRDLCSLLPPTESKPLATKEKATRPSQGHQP
V18M-ChAT (human 69-kDa choline acetyltransferase, CMS-related mutant) (P28329, form named): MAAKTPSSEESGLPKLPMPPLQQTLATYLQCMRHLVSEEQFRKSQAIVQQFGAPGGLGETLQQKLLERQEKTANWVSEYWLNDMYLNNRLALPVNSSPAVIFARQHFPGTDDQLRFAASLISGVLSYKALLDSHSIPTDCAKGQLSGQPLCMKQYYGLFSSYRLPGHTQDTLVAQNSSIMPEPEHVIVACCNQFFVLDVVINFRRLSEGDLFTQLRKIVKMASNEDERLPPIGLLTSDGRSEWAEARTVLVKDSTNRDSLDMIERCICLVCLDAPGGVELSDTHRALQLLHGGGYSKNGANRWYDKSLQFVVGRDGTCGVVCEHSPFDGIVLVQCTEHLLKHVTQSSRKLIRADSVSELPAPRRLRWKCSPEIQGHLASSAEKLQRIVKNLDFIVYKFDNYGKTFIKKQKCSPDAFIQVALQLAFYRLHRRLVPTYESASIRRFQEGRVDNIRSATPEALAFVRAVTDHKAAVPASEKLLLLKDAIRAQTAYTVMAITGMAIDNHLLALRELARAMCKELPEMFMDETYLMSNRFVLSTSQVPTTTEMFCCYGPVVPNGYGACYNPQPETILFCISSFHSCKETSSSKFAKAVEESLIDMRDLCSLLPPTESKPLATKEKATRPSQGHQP
P17A/P19A-ChAT (human 69-kDa choline acetyltransferase, proline-rich motif mutant) (P28329, form named): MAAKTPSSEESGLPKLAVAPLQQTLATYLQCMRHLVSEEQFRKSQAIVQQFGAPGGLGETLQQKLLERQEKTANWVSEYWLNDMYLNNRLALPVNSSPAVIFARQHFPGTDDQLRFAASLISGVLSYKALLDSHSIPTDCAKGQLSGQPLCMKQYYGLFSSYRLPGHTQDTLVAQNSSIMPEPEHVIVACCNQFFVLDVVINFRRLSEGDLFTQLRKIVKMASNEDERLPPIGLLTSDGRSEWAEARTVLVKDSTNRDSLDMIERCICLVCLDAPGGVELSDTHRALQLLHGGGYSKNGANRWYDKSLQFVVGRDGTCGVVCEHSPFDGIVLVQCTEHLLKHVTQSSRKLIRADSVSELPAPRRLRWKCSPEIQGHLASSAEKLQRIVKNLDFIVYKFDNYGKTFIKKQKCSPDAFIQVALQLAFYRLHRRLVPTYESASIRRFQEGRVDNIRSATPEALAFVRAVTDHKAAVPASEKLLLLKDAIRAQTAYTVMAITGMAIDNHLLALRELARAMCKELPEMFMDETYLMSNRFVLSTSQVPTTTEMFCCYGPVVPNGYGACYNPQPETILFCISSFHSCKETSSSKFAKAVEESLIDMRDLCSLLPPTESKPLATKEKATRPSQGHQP
A513T-ChAT (human 69-kDa choline acetyltransferase, CMS-related mutant) (P28329, form named): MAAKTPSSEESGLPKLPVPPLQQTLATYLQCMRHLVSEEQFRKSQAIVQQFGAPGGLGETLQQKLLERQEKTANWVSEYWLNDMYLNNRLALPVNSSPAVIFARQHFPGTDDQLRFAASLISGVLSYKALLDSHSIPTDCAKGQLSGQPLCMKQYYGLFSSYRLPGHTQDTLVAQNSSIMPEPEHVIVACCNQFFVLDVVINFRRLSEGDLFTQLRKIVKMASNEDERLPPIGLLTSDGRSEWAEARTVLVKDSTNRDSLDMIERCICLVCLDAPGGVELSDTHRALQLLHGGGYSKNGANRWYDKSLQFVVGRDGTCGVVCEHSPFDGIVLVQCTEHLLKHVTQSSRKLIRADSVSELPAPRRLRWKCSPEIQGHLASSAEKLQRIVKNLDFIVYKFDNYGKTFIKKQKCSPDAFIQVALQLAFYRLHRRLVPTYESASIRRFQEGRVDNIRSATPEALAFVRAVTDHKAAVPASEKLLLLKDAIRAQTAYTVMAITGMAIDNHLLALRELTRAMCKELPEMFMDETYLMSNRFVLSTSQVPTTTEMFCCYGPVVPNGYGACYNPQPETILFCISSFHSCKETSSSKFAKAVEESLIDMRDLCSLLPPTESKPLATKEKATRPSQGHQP
UniProt Q9WUD1: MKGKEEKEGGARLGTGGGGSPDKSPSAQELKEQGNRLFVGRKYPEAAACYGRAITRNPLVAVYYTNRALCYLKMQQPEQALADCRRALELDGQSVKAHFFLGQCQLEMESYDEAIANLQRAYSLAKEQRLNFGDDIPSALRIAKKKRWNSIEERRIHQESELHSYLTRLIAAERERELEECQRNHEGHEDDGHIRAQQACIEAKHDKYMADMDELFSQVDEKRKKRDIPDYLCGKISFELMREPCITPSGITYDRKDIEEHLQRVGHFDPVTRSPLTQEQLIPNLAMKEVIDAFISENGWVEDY
UniProt Q9UNE7: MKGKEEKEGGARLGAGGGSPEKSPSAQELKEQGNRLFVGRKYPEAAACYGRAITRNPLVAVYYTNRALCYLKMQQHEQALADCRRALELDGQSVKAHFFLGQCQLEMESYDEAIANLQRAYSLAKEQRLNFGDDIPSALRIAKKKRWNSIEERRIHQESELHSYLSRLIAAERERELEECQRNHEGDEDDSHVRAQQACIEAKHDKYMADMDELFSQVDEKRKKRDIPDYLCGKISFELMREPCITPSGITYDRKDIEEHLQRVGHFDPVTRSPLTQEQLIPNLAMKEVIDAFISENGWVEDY
UniProt P11142: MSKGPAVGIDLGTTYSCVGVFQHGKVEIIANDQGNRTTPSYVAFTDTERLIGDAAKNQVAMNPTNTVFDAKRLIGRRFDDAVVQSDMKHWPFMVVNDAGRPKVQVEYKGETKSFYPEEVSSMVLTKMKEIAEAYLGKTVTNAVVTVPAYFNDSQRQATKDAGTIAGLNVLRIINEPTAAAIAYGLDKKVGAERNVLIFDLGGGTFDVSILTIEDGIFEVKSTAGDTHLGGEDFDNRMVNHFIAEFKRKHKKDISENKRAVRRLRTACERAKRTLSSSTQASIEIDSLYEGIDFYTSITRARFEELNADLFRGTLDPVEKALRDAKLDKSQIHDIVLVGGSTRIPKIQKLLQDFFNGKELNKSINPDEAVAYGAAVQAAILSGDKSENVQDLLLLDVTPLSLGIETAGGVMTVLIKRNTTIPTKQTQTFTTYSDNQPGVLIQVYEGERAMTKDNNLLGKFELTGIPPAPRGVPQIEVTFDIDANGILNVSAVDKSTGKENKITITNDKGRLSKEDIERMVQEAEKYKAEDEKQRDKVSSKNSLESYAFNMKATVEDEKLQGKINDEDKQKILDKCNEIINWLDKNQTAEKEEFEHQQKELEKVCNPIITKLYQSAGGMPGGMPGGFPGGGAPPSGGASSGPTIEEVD

How the values were obtained:
[1] = target: wild-type human 69-kDa choline acetyltransferase (ChAT) (human) (UniProt P28329); assay: proximity ligation; Duolink in situ PLA in formalin-fixed, permeabilised SN56 cells expressing wild-type ChAT; goat anti-ChAT with mouse anti-HSC70, mouse anti-HSP90 or rabbit anti-CHIP; confocal microscopy
[2] = target: V18M-ChAT (human 69-kDa choline acetyltransferase, CMS-related mutant) (human) (UniProt P28329); assay: co-IP; SN56 cells expressing untagged ChAT; lysate (4 mg protein; 10 mM HEPES pH 7.4, 5 mM MgCl2, 1 mM EGTA, 50 mM NaCl, 5% glycerol, 0.5% Triton X-100) with anti-ChAT antibody CTab 18 h at 4°C, protein-G Dynabeads; blots for endogenous HSC70, HSP90, CHIP
[3] = target: P17A/P19A-ChAT (human 69-kDa choline acetyltransferase, proline-rich motif mutant) (human) (UniProt P28329); assay: as above
[4] = target: A513T-ChAT (human 69-kDa choline acetyltransferase, CMS-related mutant) (human) (UniProt P28329); assay: as above
[5] = target: wild-type human 69-kDa choline acetyltransferase (ChAT) (human) (UniProt P28329); assay: as above
[6] = target: V18M-ChAT (human 69-kDa choline acetyltransferase, CMS-related mutant) (human) (UniProt P28329); assay: co-IP; SN56 cells co-expressing untagged ChAT and FLAG-CHIP; lysate (2 mg protein; 10 mM HEPES pH 7.4, 5 mM MgCl2, 1 mM EGTA, 50 mM NaCl, 5% glycerol, 0.5% Triton X-100) with anti-ChAT antibody CTab 18 h at 4°C, protein-G Dynabeads; anti-FLAG blot
[7] = target: P17A/P19A-ChAT (human 69-kDa choline acetyltransferase, proline-rich motif mutant) (human) (UniProt P28329); assay: as above
[8] = target: A513T-ChAT (human 69-kDa choline acetyltransferase, CMS-related mutant) (human) (UniProt P28329); assay: as above
[9] = target: wild-type human 69-kDa choline acetyltransferase (ChAT) (human) (UniProt P28329); assay: as above
[10] = target: P17A/P19A-ChAT (human 69-kDa choline acetyltransferase, proline-rich motif mutant) (human) (UniProt P28329); assay: co-IP; HEK293 cells expressing untagged ChAT; lysate (4 mg protein; 10 mM HEPES pH 7.4, 5 mM MgCl2, 1 mM EGTA, 50 mM NaCl, 5% glycerol, 0.5% Triton X-100) with anti-ChAT antibody CTab 18 h at 4°C, protein-G Dynabeads; blots for endogenous HSC70, HSP70, HSP90
[11] = target: wild-type human 69-kDa choline acetyltransferase (ChAT) (human) (UniProt P28329); assay: as above

Measured: binding

C-terminus of HSC70-interacting protein (CHIP) (endogenous, SN56) (from UniProt Q9WUD1 1-304) (enzyme)
binds: [1] | [2] | [3] | [4] | [5]

FLAG-tagged C-terminus of HSC70-interacting protein (FLAG-CHIP) (from UniProt Q9UNE7 1-303) (enzyme)
binds: [6] | [7] | [8] | [9]

heat shock cognate 71 kDa protein (HSC70) (endogenous, HEK293) (from UniProt P11142 1-646)
binds: [10] | [11]
